Data as given in PubChem BioAssay AID1439 (NMMLSC, 2008).
Screen size: about 220,000 compounds; about 770 (0.35%) were called active. This list was built around the results that the source calls inconclusive (neither active nor inactive); the mix of calls is not that of the screen. No stated cut-off is given here; in the data, active means binding response below about 49% or above about 150%; inconclusive means no clear call, values can overlap the other calls; inactive means in between.

Protein sequences, listed by entry. Tags and fused reporters are not part of them.
UniProt P09471, whole entry, looked up: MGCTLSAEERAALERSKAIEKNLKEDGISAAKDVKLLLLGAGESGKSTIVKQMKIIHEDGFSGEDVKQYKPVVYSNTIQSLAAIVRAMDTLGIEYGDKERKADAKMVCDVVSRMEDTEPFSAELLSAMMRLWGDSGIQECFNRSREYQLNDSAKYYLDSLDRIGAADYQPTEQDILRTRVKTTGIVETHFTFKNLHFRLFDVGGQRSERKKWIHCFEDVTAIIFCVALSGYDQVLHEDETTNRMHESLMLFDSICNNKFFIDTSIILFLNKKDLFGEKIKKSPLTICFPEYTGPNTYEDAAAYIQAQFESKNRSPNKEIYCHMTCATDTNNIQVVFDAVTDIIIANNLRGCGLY

Each compound was assayed against Guanine nucleotide-binding protein G(o) subunit alpha (Homo sapiens) (UniProt P09471) (assay: RGS7-Galphao binding modulators, primary screen, biochemical, multiplexed bead flow cytometry (AID 1439;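 further: fluorescent Galphao held in activated GDP-AlF4 state binding bead-coupled RGS7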)). Conditions: at 10 µM, actives lie on both sides.

| Compound | binding response (% of control) |
| --- | --- |
| COc1cccc(-c2noc(-c3ccc(Cl)nc3)n2)c1 | inactive: 99.9% |
| Cc1nn(C(C)(C)C)c(NC(=O)c2ccc(Cl)cc2Cl)c1Br | inconclusive: 83.8% |
| CCc1ccc(NC(=S)Nc2ccc(S(=O)(=O)Nc3ncccn3)cc2)cc1 | inactive: 97.1% |
| COC(=O)c1c(N2C(=O)CC(Sc3ccccc3C(=O)O)C2=O)sc2c1CCCC2 (centres undefined) | inactive: 97.5% |
| CCOc1ccc(S(=O)(=O)N2Cc3ccccc3CC2C(=O)O)cc1 (centres undefined) | inconclusive: 88.9% |
| O=C(Nc1cccc(S(=O)(=O)N2CCOCC2)c1)C1CCCN(C(=O)c2ccc(Cl)cc2)C1 (centres undefined) | inconclusive: 111% |
| CC(=O)Cn1c(=O)oc2ccccc21 | inconclusive: 107% |
| COc1ccc(-c2cc(=O)c3ccccc3o2)cc1 | inconclusive: -18.1% |
| Cc1cc(-c2ccccc2C(=O)NC2CCCCC2)on1 | inconclusive: 140% |
| Cc1nc(-c2cc(-c3nc(-c4cc(C(F)(F)F)cc(C(F)(F)F)c4)no3)no2)cs1 | inconclusive: 108% |
| Cc1c(-c2ccccc2)[n+](=O)c(-c2ccc(Cl)cc2)c(C)n1[O-] | inactive: 115% |
| O=S1(=O)N=C(N=Nc2c(O)[nH]c3ccccc23)c2ccccc21 | active: 11.8% |
| S=C(NCCc1cnc[nH]1)NC1CCCC1 | inactive: 93.9% |
| O=C(NCc1csc2ccc(Cl)cc12)Nc1cccc2ccccc12 | inconclusive: 83.4% |
| Cc1ccc(S(=O)(=O)Nc2nc(C)c(C(=O)NN)s2)cc1 | inconclusive: 72.5% |
| Cc1ccc(S(=O)(=O)N/N=C/c2cccc([N+](=O)[O-])c2)cc1 | inactive: 80% |
| S=c1[nH]nc(-c2ccccn2)n1/N=C/c1c(Cl)cccc1Cl | inconclusive: 90.4% |
| CCOC(=O)/C(C)=N/NC(=O)c1ccc([N+](=O)[O-])cc1 | inconclusive: 89.7% |
| C(#CC12CC3CC(CC(C3)C1)C2)CN1CCOCC1 | inactive: 101% |
| O=C(O)/C=C\c1ccccc1Oc1ccc(F)cc1 | active: 167% [activator] |

| Compound | binding response (% of control) |
| --- | --- |
| CCCN1C(=O)C(O)(c2c(C)[nH]c3ccccc23)c2ccccc21 (centres undefined) | inconclusive: 96% |
| Cc1cc2oc(C(=O)NCCc3ccc(S(N)(=O)=O)cc3)c(C)c2cc1C | inconclusive: 103% |
| COCCCN(CCC#N)C(=O)c1c(-c2c(Cl)cccc2Cl)noc1C | inconclusive: 10.1% |
| COc1ccc2ccccc2c1CN1CCCC(CO)C1 (centres undefined) | inactive: 113% |
| COC(=O)c1sc(N2C(=O)c3oc4ccccc4c(=O)c3C2c2cccc(O)c2)nc1C (centres undefined) | inconclusive: 112% |
| Cc1ccc(S(=O)(=O)N2CCN(C(=O)Cn3nc(C(=O)O)c4ccccc4c3=O)CC2)cc1 | inconclusive: 162% |
| COc1cccc(NC(=O)Nc2nnc(CC(=O)Nc3ccccc3)s2)c1 | inconclusive: 126% |
| CC(C)c1ccc(N2C(=O)/C(=C/N(C)C)SC2=S)cc1 | inconclusive: 112% |
| c1csc(-c2nc3ccccc3s2)c1 | inconclusive: -281% |
| O=c1[nH]c2ccccc2n2c(=S)[nH]nc12 | inconclusive: 109% |
| COc1ccc(C(c2c(O)nc[nH]c2=O)c2c(O)nc[nH]c2=O)cc1 | inconclusive: 118% |
| COc1ccc(/C=C/C(=O)c2cc(Cl)ccc2O)c(OC)c1 | inconclusive: -364% |
| Cc1ccc(-n2c(SCC(N)=O)nnc2-c2cnccn2)cc1 | inconclusive: 105% |
| CCCCCCC(=O)N1CCCC(c2nc(-c3cccc(OC)c3)no2)C1 (centres undefined) | inconclusive: 96% |
| Cc1ccc(NC(=O)COC(=O)/C=C/c2cccs2)c(C)c1 | inactive: 103% |
| Cc1nc2ccccc2n(CC(=O)Nc2cc(Cl)cc(Cl)c2)c1=O | inactive: 97.4% |
| O=C(NCCCN1CCCC1)c1ccc2c(c1)N(Cc1ccccc1)CCS2 | inconclusive: 48.4% |
| Cc1onc(-c2c(Cl)cccc2Cl)c1C(=O)Nc1nc(C(C)(C)C)cs1 | inconclusive: 130% |
| Cc1ccc(-c2ccc(/C=N/NC(=O)c3ccccc3O)o2)cc1 | inconclusive: 153% |
| CC1=NNC(=O)C1CCC(=O)N/N=C(\C)c1ccc(Cl)cc1 (centres undefined) | inconclusive: -111% |

| Compound | binding response (% of control) |
| --- | --- |
| COc1cc(OC)c(C2C(C#N)=C(C)NC(C)=C2C#N)c(C(=O)O)c1 | inconclusive: 283% |
| COC(=O)/C(C#N)=C(/Nc1ccc(F)c(Cl)c1)C(F)(F)F | inconclusive: 33.2% |
| Cc1cc(NC(=O)CSc2ncnc3sccc23)no1 | inconclusive: 81.3% |
| Cn1c2ccccc2c(=O)c2c(=O)n(-c3ccccc3)c(-c3ccc(C(C)(C)C)cc3)nc21 | inconclusive: 48.4% |
| CCOc1ccccc1CN1CCN(CC2=Cc3cc(OC)ccc3OC2)CC1CCO (centres undefined) | inconclusive: 101% |
| O=C(c1c(Cl)nc2sccn12)N1CCN(c2cccc(Cl)c2)CC1 | inactive: 98.8% |
| CCn1c(SCc2ccccc2Cl)nc2nc3c(cc2c1=O)CCCC3 | inactive: 101% |
| Cc1ccc(C2NC(c3ccc(C)cc3)C(C)C(=O)C2C)cc1 (centres undefined) | inconclusive: 253% |
| CCN(Cc1cc(=O)[nH]c2ccccc12)C(=O)c1ccc(C)cc1 | inconclusive: 112% |
| CCn1nc(C)c(CN2CCN(Cc3ccsc3)C(CCO)C2)c1C (centres undefined) | inactive: 101% |
| Cc1ccc(-c2sc(C)nc2CC(=O)O)cc1 | inactive: 96% |
| COC(=O)c1sc(-c2ccc(Cl)cc2)cc1NC(=O)CSCC(=O)O | inconclusive: 88% |
| Cc1nc(C(=O)NCc2ccccc2)sc1C1(C)CC(c2ccccc2)=NO1 (centres undefined) | inconclusive: 107% |
| C(=N\Nc1ncnc2nc[nH]c12)/c1cccs1 | inactive: 96.9% |
| O=C(Nc1ccc(F)cc1)C(=O)C1C(=O)Nc2ccccc21 (centres undefined) | inconclusive: 108% |
| COc1cccc(N2CC(=O)Nc3c(oc4nc(-c5ccccc5)cc(C)c34)C2=O)c1 | inconclusive: 140% |
| Cc1nccc(-c2cc(-c3ccc(Cl)cc3Cl)no2)n1 | inconclusive: 119% |
| O/N=C/c1cc(Br)cs1 | inconclusive: 270% |
| Oc1[nH]c2ccccc2c1N=Nc1ncnc2c1oc1ccccc12 | inconclusive: 115% |

4 entries from above in a different format:
Compound,binding response (% of control)
Cc1ccc(-c2sc(C)nc2CC(=O)O)cc1,inactive: 96%
COC(=O)c1sc(-c2ccc(Cl)cc2)cc1NC(=O)CSCC(=O)O,inconclusive: 88%
Cc1nc(C(=O)NCc2ccccc2)sc1C1(C)CC(c2ccccc2)=NO1 (centres undefined),inconclusive: 107%
C(=N\Nc1ncnc2nc[nH]c12)/c1cccs1,inactive: 96.9%
